# Reference: PMC7819943, “Rice protein-binding microarrays: a tool to detect cis-acting elements near promoter regions in rice”
# By UniProt entry, the sequences of proteins in these tests, tags left out.
# UniProt Q0JBA9, entry or part of it: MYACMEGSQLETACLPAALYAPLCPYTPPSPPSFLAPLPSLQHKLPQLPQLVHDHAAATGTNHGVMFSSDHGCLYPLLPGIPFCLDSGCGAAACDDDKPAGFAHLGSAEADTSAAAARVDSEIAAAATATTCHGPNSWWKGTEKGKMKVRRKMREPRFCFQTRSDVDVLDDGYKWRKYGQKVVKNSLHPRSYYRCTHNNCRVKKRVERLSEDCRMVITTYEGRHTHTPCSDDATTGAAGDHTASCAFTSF
# Some of the results follow.
# Biological target: OsWRKY34 (Oryza sativa, UniProt Q0JBA9 1-250)
# Experiment: protein-binding microarray (RPBM); PBS, 2% BSA, 51.3 ng/ul salmon testes DNA, 50 uM zinc acetate, 200 nM TF, 25 C, 1 h; high values mean tight binding
# Conditions: protein: recombinant; tags: N-terminal polyhistidine and DsRed monomer fusion (pET32a); label: CyDye5-dUTP incorporated in the synthesized complementary strand; 3' TTTTT single-stranded linker to array surface; dsDNA, one strand shown
# In short: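 The binding signal is fluorescence intensity per array feature (arbitrary units). Readings came from an Axon 4000B scanner after a washed, 2% BSA-blocked, double-stranded custom Agilent array had been incubated for 1 h at 25 °C with 200 nM protein and 50 µM zinc acetate. The protein was a Ni–NTA-purified transcription factor fused N-terminally to polyhistidine and DsRed, expressed in E. coli BL21-CodonPlus.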
row,Sequence,binding signal
1,AAAATTTTGCCTACCTATTGTTGTTCTTTTTCCTATATATCGGAGTCACCTAGTGCAG,9090 fluorescence intensity (a.u.)
2,GAACCTCTCTAGCTATCCTTTGGTAATACCCTGCATCATACGGAGTCACCTAGTGCAG,10200 fluorescence intensity (a.u.)
3,GACTTTTTTTCCACGGCCGAAACATACCGCGTGCATACGTCGGAGTCACCTAGTGCAG,9720 fluorescence intensity (a.u.)
4,TGATCTGATTTTTTTGGTTTTCATTTGCACATTTTCTAAGCGGAGTCACCTAGTGCAG,10400 fluorescence intensity (a.u.)
5,CCATACGATTCTTGGGGTATTTGGGTTGTTTTAGCTTCTGCGGAGTCACCTAGTGCAG,13100 fluorescence intensity (a.u.)
6,CGTGTTGTTTCTTACGTACCATTTAAATAGTTACTCTCTCCGGAGTCACCTAGTGCAG,12100 fluorescence intensity (a.u.)
7,GCATATTTAATTTGTTATTCTCCATTTATATTTCCTCAATCGGAGTCACCTAGTGCAG,9060 fluorescence intensity (a.u.)
8,AATACTATGCTTTTATATTCCTTTTTTTTTCTTAATCCTTCGGAGTCACCTAGTGCAG,9770 fluorescence intensity (a.u.)
9,TTCCACCCTATATGTCAATATTTTTTTTGTAAATGCTCACCGGAGTCACCTAGTGCAG,9410 fluorescence intensity (a.u.)
10,CGGTGGGTGGTGGACATTGGCGGGCGACGAGGCGCCGGTGCGGAGTCACCTAGTGCAG,9210 fluorescence intensity (a.u.)
11,CCACTCTCGCCGCTCGCCGTTGCCACTCGCACTCACAATGCGGAGTCACCTAGTGCAG,10100 fluorescence intensity (a.u.)
12,TATGGCTGTGTTTAGTTCGTGTGCCAAAATTTTTTTAAGTCGGAGTCACCTAGTGCAG,10400 fluorescence intensity (a.u.)
13,CACAGGCGCGAGCATTCCCAGCGCTGCTCTCCCTGTACCCCGGAGTCACCTAGTGCAG,8080 fluorescence intensity (a.u.)
14,ACCTACCTCATCATCGTCGAGCTCCTGATTTGCGTCGAGGCGGAGTCACCTAGTGCAG,8200 fluorescence intensity (a.u.)
15,CCACCGCCGCCTCCCGCGAGGTCTCCTTCTCGCGCGACAACGGAGTCACCTAGTGCAG,8200 fluorescence intensity (a.u.)
16,AGGGGATGTTTAGCTTGATGGTGATTGCTGAACTGTTGGACGGAGTCACCTAGTGCAG,9160 fluorescence intensity (a.u.)
17,ACATGTTCTTTTTATGCTGCTTTACATATACTGCTTATCCCGGAGTCACCTAGTGCAG,12400 fluorescence intensity (a.u.)
18,GCGGCGGAGGCCACCGGCGGTGACAACGGGGAGGGGAGGACGGAGTCACCTAGTGCAG,8420 fluorescence intensity (a.u.)
19,CCATCAGTTGACCATGTGTTGACCGTTAACTCTCAAGTAACGGAGTCACCTAGTGCAG,9190 fluorescence intensity (a.u.)
20,GGAGAACTGAACCTTTTCTTCCTTATCGTCTTATGAACTACGGAGTCACCTAGTGCAG,8690 fluorescence intensity (a.u.)
21,TGACTTCTCAACACTCCCTCCGTCTCGTCTTATTTTAAGTCGGAGTCACCTAGTGCAG,11200 fluorescence intensity (a.u.)

row,Sequence,binding signal
1,ATAATATCTACTCCTGTCTCTCACCCCAGCCGCCCAATGACGGAGTCACCTAGTGCAG,8920 fluorescence intensity (a.u.)
2,AGAAGGTCGTGGCGAGGGAGGGTGGGCGACGGGCGTGGCGCGGAGTCACCTAGTGCAG,10600 fluorescence intensity (a.u.)
3,GCAGGTCTCGGGGTTCTTCTCGTCCATCTTCCCCACCGGCCGGAGTCACCTAGTGCAG,10700 fluorescence intensity (a.u.)
4,CCATGAGTCCACGGTCCATGGGGCAAAACACCGGGGCGGGCGGAGTCACCTAGTGCAG,8620 fluorescence intensity (a.u.)
5,ACCCCACACACTACCCCTCCCTAGTTCGCCTTCCACGTACCGGAGTCACCTAGTGCAG,8100 fluorescence intensity (a.u.)
6,TGTTATGAGATTAGGCCTTAGCTCCTTTGTTCCGGCTCTCCGGAGTCACCTAGTGCAG,8340 fluorescence intensity (a.u.)
7,CTCCTCAAACACACCATTATTACTGTCTCACATCACATATCGGAGTCACCTAGTGCAG,11600 fluorescence intensity (a.u.)
8,TTTGATATGAGTGCTCGCATTTACGGCTAATTATTCTTTCCGGAGTCACCTAGTGCAG,8550 fluorescence intensity (a.u.)
9,GCAAGCGCTGTTGCCTGCCTGTAGCTAGCTTTTATATCGTCGGAGTCACCTAGTGCAG,9430 fluorescence intensity (a.u.)
10,GACCCTGCCCAGGATCATCAATACACGTTGAGGCTTCTTCCGGAGTCACCTAGTGCAG,8570 fluorescence intensity (a.u.)
11,GAGGATGCGAACCCCTGTACTACCGTCTTCTGCAAAAACACGGAGTCACCTAGTGCAG,10600 fluorescence intensity (a.u.)
12,CTTCAGTCATTTTCCATCACATCAACCTGTCATACACACACGGAGTCACCTAGTGCAG,9770 fluorescence intensity (a.u.)
13,TGCTGCCCCGCCAACATCGTGTTGAATCTCGTCGATATATCGGAGTCACCTAGTGCAG,8280 fluorescence intensity (a.u.)
14,TCTTTTCTTGGCTCCGCTTTGTTCTTGCTCTCATCTTGCTCGGAGTCACCTAGTGCAG,11300 fluorescence intensity (a.u.)
15,TGTCGGGTTTGTGTTGTGTTTGTGTGTGTAGTGTGAGATCCGGAGTCACCTAGTGCAG,12700 fluorescence intensity (a.u.)
16,ATCATAACTAGCATCCATCCCAAGCTTAGATCATTGGATACGGAGTCACCTAGTGCAG,8030 fluorescence intensity (a.u.)
17,CGGTCTGCTTTCTACAACACCTCGATCTCGTCTATAAATACGGAGTCACCTAGTGCAG,10500 fluorescence intensity (a.u.)
18,TGTGGTTTATGGTCGTGGATTAGATTTCGATCACAGTTGACGGAGTCACCTAGTGCAG,15100 fluorescence intensity (a.u.)
19,AGCCACGTCGTCCAGATCGCCACTCGCCCATCTCTCTCTCCGGAGTCACCTAGTGCAG,10700 fluorescence intensity (a.u.)
20,TTCTTGTGATGTTCTTTCTCTTATTCGTTGTCCTCACACCCGGAGTCACCTAGTGCAG,9500 fluorescence intensity (a.u.)
21,GCCGTTCGCTTCCCGCAATCTTGTTTCCTACGTACGACGACGGAGTCACCTAGTGCAG,12200 fluorescence intensity (a.u.)

# 7 entries from above in a different format:
row | Sequence | binding signal
1 | ATAATATCTACTCCTGTCTCTCACCCCAGCCGCCCAATGACGGAGTCACCTAGTGCAG | 8920 fluorescence intensity (a.u.)
2 | AGAAGGTCGTGGCGAGGGAGGGTGGGCGACGGGCGTGGCGCGGAGTCACCTAGTGCAG | 10600 fluorescence intensity (a.u.)
5 | ACCCCACACACTACCCCTCCCTAGTTCGCCTTCCACGTACCGGAGTCACCTAGTGCAG | 8100 fluorescence intensity (a.u.)
6 | TGTTATGAGATTAGGCCTTAGCTCCTTTGTTCCGGCTCTCCGGAGTCACCTAGTGCAG | 8340 fluorescence intensity (a.u.)
8 | TTTGATATGAGTGCTCGCATTTACGGCTAATTATTCTTTCCGGAGTCACCTAGTGCAG | 8550 fluorescence intensity (a.u.)
15 | TGTCGGGTTTGTGTTGTGTTTGTGTGTGTAGTGTGAGATCCGGAGTCACCTAGTGCAG | 12700 fluorescence intensity (a.u.)
18 | TGTGGTTTATGGTCGTGGATTAGATTTCGATCACAGTTGACGGAGTCACCTAGTGCAG | 15100 fluorescence intensity (a.u.)

# Additional results

row,Sequence,binding signal
1,CTCTACCTGCATCTGACCACCTCCATTGTTTCTGCAGCCTCGGAGTCACCTAGTGCAG,8750 fluorescence intensity (a.u.)
2,AAACCCTCTCTCTCTCTCTCTCTCACACACACACGCAAACCGGAGTCACCTAGTGCAG,10300 fluorescence intensity (a.u.)
3,CTCCATCGCCACTTCACTTGATTCGCCGCCGACGAACTCCCGGAGTCACCTAGTGCAG,8350 fluorescence intensity (a.u.)
4,CCTCCGCGTGAATCCCCGCCCCTGCCTACCTCCGCGACATCGGAGTCACCTAGTGCAG,9160 fluorescence intensity (a.u.)
5,CTTTGGCTTTAATTTGTGGCGTTCGTTTTCCGTGCACTAACGGAGTCACCTAGTGCAG,15600 fluorescence intensity (a.u.)
6,ACATCCGATCAGTTTTCGTCCCTACTTCTATATTACTATACGGAGTCACCTAGTGCAG,12800 fluorescence intensity (a.u.)
7,CTTCTTGATCTCTGCTGAATTCATCTTGATTTTGGATTGACGGAGTCACCTAGTGCAG,8240 fluorescence intensity (a.u.)
8,AGGTGTTTGATGTTTGATGAACTCGTACTTTTTATAGTAGCGGAGTCACCTAGTGCAG,9080 fluorescence intensity (a.u.)
9,CACAGCCATACGCCCATACCCATACCCCGGACGCAGACGACGGAGTCACCTAGTGCAG,8270 fluorescence intensity (a.u.)
10,CTTCCAACTTTTCCGTCACATCGTTCCAATTTCAACCAAACGGAGTCACCTAGTGCAG,8680 fluorescence intensity (a.u.)
11,TCTATTTCTTTATCCTTTTGACTTTGTTCTGTACTGATGTCGGAGTCACCTAGTGCAG,10900 fluorescence intensity (a.u.)
12,GGTGACGGCGGCTGTCTTCTTCGTAGGGTGCGGGGTGGCTCGGAGTCACCTAGTGCAG,8880 fluorescence intensity (a.u.)
13,GATATCATATGCTGCCTGTAATGTATTGGATCCATCTGTACGGAGTCACCTAGTGCAG,8230 fluorescence intensity (a.u.)
14,TCATCAAGGCCTGTCTGTGGGACCTCCTGTTTTCGTGCCACGGAGTCACCTAGTGCAG,9520 fluorescence intensity (a.u.)
15,TATCCCGTACTTCGTATTTGGTTGTACACTAGTAGTACCACGGAGTCACCTAGTGCAG,8180 fluorescence intensity (a.u.)
16,CCACCACCGACGACTCCGACTCCGACTCCGGCTCGATCTCCGGAGTCACCTAGTGCAG,8700 fluorescence intensity (a.u.)
17,TCACTGAACAACCACGTTGCTGCTGGTTCTTTTGGTCAGCCGGAGTCACCTAGTGCAG,9960 fluorescence intensity (a.u.)
18,CCTTGCCGCGCCGTCACACCGCCGCCGCCTCCTCGCCATGCGGAGTCACCTAGTGCAG,8530 fluorescence intensity (a.u.)
19,TTCTCTATACTCTTTGTATTGCCTAGTTGTCTTCTGTGGACGGAGTCACCTAGTGCAG,10400 fluorescence intensity (a.u.)
20,TGTTGCTGTGTTCGATCGACATGCTCTGCTTCTGCTTCTGCGGAGTCACCTAGTGCAG,9170 fluorescence intensity (a.u.)
21,GTCCGTGGGGCCCACACCAAAGACCGTTGACTTGACTAGTCGGAGTCACCTAGTGCAG,12100 fluorescence intensity (a.u.)

row,Sequence,binding signal
1,GTAGGGGCGGGAGGGGAGGCGTGGTGGCGCCGGGCCGGCGCGGAGTCACCTAGTGCAG,14900 fluorescence intensity (a.u.)
2,CGGTGTATTTGTATGGTTTTCGGGCCTAGTTTTACTTATACGGAGTCACCTAGTGCAG,12000 fluorescence intensity (a.u.)
3,GCCGATCGGTCTTTTGTCTTTTCTCTAACTCTATCAGACCCGGAGTCACCTAGTGCAG,8740 fluorescence intensity (a.u.)
4,CCCATCCTCCCACTCGGCCACTCCCACTCCCTCTCCCTCTCGGAGTCACCTAGTGCAG,8400 fluorescence intensity (a.u.)
5,CTCTATCACGATCTCTATCTGATTCGTCGTGTCCTTATTTCGGAGTCACCTAGTGCAG,9540 fluorescence intensity (a.u.)
6,ACGGACGGTCAAACGTTGAACATGAACAGTACAAAACTACCGGAGTCACCTAGTGCAG,8300 fluorescence intensity (a.u.)
7,TTAGGTCGTCAGGTGTTTCCTGTAGTTAGGGTTTGTCCTTCGGAGTCACCTAGTGCAG,8720 fluorescence intensity (a.u.)
8,TCTGCGGCAAGTACTAAATTGACTTTTCTTATACTTTTTCCGGAGTCACCTAGTGCAG,10900 fluorescence intensity (a.u.)
9,TTCTTCTTTTCCACGGCGCCGTCGCGAAGTTCTCCTCGATCGGAGTCACCTAGTGCAG,8630 fluorescence intensity (a.u.)
10,CTGGTGATATTTCTCTGCTTCCAAGGCTTCCGGCTTTCTCCGGAGTCACCTAGTGCAG,10100 fluorescence intensity (a.u.)
11,CCACCAGCGATTTGGCCCGATCTCATCCCACCAGCGATTTCGGAGTCACCTAGTGCAG,8430 fluorescence intensity (a.u.)
12,ATGTATTGCAATTGTTGCATCTGTGGTCTGCCTTAAACATCGGAGTCACCTAGTGCAG,8530 fluorescence intensity (a.u.)
13,AACCCCATTCTTAAGATAGTATAGTGTCAATTTTCTCAGCCGGAGTCACCTAGTGCAG,8060 fluorescence intensity (a.u.)
14,GAACTACGTCACACACAGCTTGTCGGTTCTACATCTATATCGGAGTCACCTAGTGCAG,8570 fluorescence intensity (a.u.)
15,AGAAAATCCCGATACGTCTCCGATACTCCAATCCCTAAATCGGAGTCACCTAGTGCAG,8740 fluorescence intensity (a.u.)
16,ATAAATATATTTTTAGTTTTCCACACGTTCCGTTCCTTCCCGGAGTCACCTAGTGCAG,9120 fluorescence intensity (a.u.)
17,TTTTCATATACTATCTGTTGAGTACTCTCTCTTTGTATTACGGAGTCACCTAGTGCAG,11700 fluorescence intensity (a.u.)
18,CCGGATCGATCTCAACGAGGTTCCATTCGTCCATGCCGCCCGGAGTCACCTAGTGCAG,8500 fluorescence intensity (a.u.)
19,TTTCCAATGTTTCTCCTTTGTCCCAAAGGAGCCCTCACAACGGAGTCACCTAGTGCAG,8640 fluorescence intensity (a.u.)
20,CCCCGCCGTCCGCGCCGACCGCGACCTGCGCTACGCCGCCCGGAGTCACCTAGTGCAG,8450 fluorescence intensity (a.u.)
21,CGTCCATGAGCTGTTAGCTGACATCCTTTTGCTGTATTGACGGAGTCACCTAGTGCAG,8920 fluorescence intensity (a.u.)
